Assay [1] has as its target T1, ϕC31 IntD477V fused to T18 (Streptomyces phage ϕC31) (UniProt Q9T221).
T1 sequence: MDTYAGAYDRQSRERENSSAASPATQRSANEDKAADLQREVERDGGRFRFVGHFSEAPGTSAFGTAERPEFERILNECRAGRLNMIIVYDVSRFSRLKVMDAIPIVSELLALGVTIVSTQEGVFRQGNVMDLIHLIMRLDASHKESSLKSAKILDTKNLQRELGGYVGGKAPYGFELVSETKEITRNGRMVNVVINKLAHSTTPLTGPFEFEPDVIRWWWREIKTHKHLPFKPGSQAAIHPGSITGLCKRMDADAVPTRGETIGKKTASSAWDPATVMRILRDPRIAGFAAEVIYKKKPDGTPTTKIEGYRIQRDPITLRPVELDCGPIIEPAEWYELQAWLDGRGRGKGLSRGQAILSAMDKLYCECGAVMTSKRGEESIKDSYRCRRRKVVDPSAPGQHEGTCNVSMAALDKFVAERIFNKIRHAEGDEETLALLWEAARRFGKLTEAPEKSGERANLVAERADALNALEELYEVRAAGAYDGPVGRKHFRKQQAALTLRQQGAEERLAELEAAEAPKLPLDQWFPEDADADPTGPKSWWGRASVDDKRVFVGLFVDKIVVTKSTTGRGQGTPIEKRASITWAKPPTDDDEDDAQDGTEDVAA
Description: two-hybrid; bacterial two-hybrid in E. coli BTH101; signal quantified by β-galactosidase assay (ONPG, ΔOD420/min/ml) of cultures grown 16 h at 30°C with IPTG.

For assay [2], the target named is T2, ϕC31 IntT564A fused to T18 (Streptomyces phage ϕC31) (UniProt Q9T221).
T2 sequence: T1 sequence with V477D, T564A
The description is as above.

Where a chain is given by its changes, count along the chain named. No constants are given. Whether binding was seen depends on the method and setting. Binding calls can cover weak binding; strength is not graded here. Tags and fused reporters may be left off the sequences shown.

Turning to “T25-ϕC31 gp3 (wild type) fusion protein (Streptomyces phage ϕC31)”, the binding result in assay [1] and in assay [2] was “binds” throughout.

For the origin of these results see article PMC5814800.
